Values of other authors, collected in patent publication US7045529B2, “Imidazopyrimidinyl and imidazopyri dinyl derivatives” (Bristol-Myers Squibb Company, priority 1999, dated 2006).
At least one structure is not confirmed: it was looked up by name or label, or the drawing left a doubt.

Assays:
[1] = tested on: “anxiogenic” effects of CRF; conditions: rats; literature (Swerdlow et al.); cited from earlier work
[2] = tested on: “anxiogenic” effects of CRF; conditions: rats; literature (Britton et al.); cited from earlier work

For CNC1=Nc2ccc(Cl)cc2C(c2ccccc2)=[N+]([O-])C1 [Chlordiazepoxide], the “effect on the “anxiogenic” effects of CRF in the acoustic startle test” value [1] is given as “attenuates” and the “effect on the “anxiogenic” effects / actions of CRF in the conflict test” value [2] is given as “attenuates”.
